The values that follow come from patent US20250215059A1.

Results are given in words; binding and its absence hold for the method and conditions named. Some binding calls cover weakened binding; strength is not graded here.

Assay [1] has as its target tau aggregates in HEK293 tau biosensor cells (4R repeat domain of tau (K18) with the P301S mutation fused to CFP or YFP, seeded with clarified tau mouse brain homogenate) (UniProt P10636). In words: fold enrichment of Halo signal in cytoplasmic tau aggregates, immunofluorescence, against FAF2-Halo.
Assay [2] has the same target. The experiment in a line: Halo imaging (FIG. 7C).
The target is the same in assay [3]. The experiment in a line: Halo imaging.
Assay [4] has the same target. In words: Halo imaging in HEK293 tau biosensor cells.
For assay [5] the target is unchanged. In words: fold enrichment of Halo signal in cytoplasmic tau aggregates, immunofluorescence, against the untargeted Halo fusion.
The target is the same in assay [6]. The experiment in a line: fold enrichment of Halo signal in cytoplasmic tau aggregates, immunofluorescence, against the Halo-only form.

B1: FAF2-42PS-Halo (protein)
chain: MAAPEERDLTQEQTEKLLQFQDLTGIESMDQCRHTLEQHNWNIEAAVQDRLNEQEGVPSVFNPPPSRPLQVNTADHRIYSYVVSRPQPRGLLGWGYYLIMLPFRFTYYTILDIFRFALRFIRPDPRSRVTDPVGDIVSFMHSFEEKYGRAHPVFYQGTYSQALNDAKRELRFLLVYLHGDDHQDSDEFCRNTLCAPEVISLINTRMLFWACSTNKPEGYRVSQALRENTYPFLAMIMLKDRRMTVVGRLEGLIQPDDLINQLTFIMDANQTYLVSERLEREERNQTQVLRQQQDEAYLASLRADQEKERKKREERERKRRKEEEVQQQKLAEERRRQNLQEEKERKLECLPPEPSPDDPESVKIIFKLPNDSRVERRFHFSQSLTVIHDFLFSLKESPEKFQIEANFPRRVLPCIPSEEWPNPPTLQEAGLSHTEVLFVQDLTDESSSSSSSSSSSSSSSSSSSSSSSSSSSSSSSSSSSSSSSSSSMAEIGTGFPFDPHYVEVLGERMHYVDVGPRDGTPVLFLHGNPTSSYVWRNIIPHVAPTHRCIAPDLIGMGKSDKPDLGYFFDDHVRFMDAFIEALGLEEVVLVIHDWGSALGFHWAKRNPERVKGIAFMEFIRPIPTWDEWPEFARETFQAFRTTDVGRKLIIDQNVFIEGTLPMGVVRPLTEVEMDHYREPFLNPVDREPLWRFPNELPIAGEPANIVALVEEYMDWLHQSPVPKLLFWGTPGVLIPPAEAARLAKSLPNCKAVDIGPGLNLLQEDNPDLIGSEIARWLSTLEISG
On to B1, for which the binding result in assay [1] is on record as “binds”.

B2: PNN C-terminus-halo (protein)
chain: MSKSRSRSSSSSSSSSSSTSSSSGSSSSSGSSSSRSSSSSSSSTSGSSSRDSSSSTSSSSESRSRSRMAEIGTGFPFDPHYVEVLGERMHYVDVGPRDGTPVLFLHGNPTSSYVWRNIIPHVAPTHRCIAPDLIGMGKSDKPDLGYFFDDHVRFMDAFIEALGLEEVVLVIHDWGSALGFHWAKRNPERVKGIAFMEFIRPIPTWDEWPEFARETFQAFRTTDVGRKLIIDQNVFIEGTLPMGVVRPLTEVEMDHYREPFLNPVDREPLWRFPNELPIAGEPANIVALVEEYMDWLHQSPVPKLLFWGTPGVLIPPAEAARLAKSLPNCKAVDIGPGLNLLQEDNPDLIGSEIARWLSTLEISG
Consider B2, for which the binding entry in assay [2], in assay [3] and in assay [4] was “binds” each time.

B3: 42-polyserine-TNPO3-halo (protein)
chain: MEGAKPTLQLVYQAVQALYHDPDPSGKERASFWLGELQRSVHAWEISDQLLQIRQDVESCYFAAQTMKMKIQTSFYELPTDSHASLRDSLLTHIQNLKDLSPVIVTQLALAIADLALQMPSWKGCVQTLVEKYSNDVTSLPFLLEILTVLPEEVHSRSLRIGANRRTEIIEDLAFYSSTVVSLLMTCVEKAGTDEKMLMKVFRCLGSWFNLGVLDSNFMANNKLLALLFEVLQQDKTSSNLHEAASDCVCSALYAIENVETNLPLAMQLFQGVLTLETAYHMAVAREDLDKVLNYCRIFTELCETFLEKIVCTPGQGLGDLRTLELLLICAGHPQYEVVEISFNFWYRLGEHLYKTNDEVIHGIFKAYIQRLLHALARHCQLEPDHEGVPEETDDFGEFRMRVSDLVKDLIFLIGSMECFAQLYSTLKEGNPPWEVTEAVLFIMAAIAKSVDPENNPTLVEVLEGVVRLPETVHTAVRYTSIELVGEMSEVVDRNPQFLDPVLGYLMKGLCEKPLASAAAKAIHNICSVCRDHMAQHFNGLLEIARSLDSFLLSPEAAVGLLKGTALVLARLPLDKITECLSELCSVQVMALKKLLSQEPSNGISSDPTVFLDRLAVIFRHTNPIVENGQTHPCQKVIQEIWPVLSETLNKHRADNRIVERCCRCLRFAVRCVGKGSAALLQPLVTQMVNVYHVHQHSCFLYLGSILVDEYGMEEGCRQGLLDMLQALCIPTFQLLEQQNGLQNHPDTVDDLFRLATRFIQRSPVTLLRSQVVIPILQWAIASTTLDHRDANCSVMRFLRDLIHTGVANDHEEDFELRKELIGQVMNQLGQQLVSQLLHTCCFCLPPYTLPDVAEVLWEIMQVDRPTFCRWLENSLKGLPKETTVGAVTVTHKQLTDFHKQVTSAEECKQVCWALRDFTRLFRGTELGSTSPVWWNSADISSSSSSSSSSSSSSSSSSSSSSSSSSSSSSSSSSSSSSSSSSGGSGGSGGGSEIGTGFPFDPHYVEVLGERMHYVDVGPRDGTPVLFLHGNPTSSYVWRNIIPHVAPTHRCIAPDLIGMGKSDKPDLGYFFDDHVRFMDAFIEALGLEEVVLVIHDWGSALGFHWAKRNPERVKGIAFMEFIRPIPTWDEWPEFARETFQAFRTTDVGRKLIIDQNVFIEGTLPMGVVRPLTEVEMDHYREPFLNPVDREPLWRFPNELPIAGEPANIVALVEEYMDWLHQSPVPKLLFWGTPGVLIPPAEAARLAKSLPNCKAVDIGPGLNLLQEDNPDLIGSEIARWLSTLEISG
As for B3, the binding entry in assay [5] is listed as “binds”.

B4: SRRM2 C-terminus-halo (protein)
chain: SRCLIAQTTPVAGSQSLSSGAVATTTSSAGDHNGMLSVPAPGVPHSDVGEPPASTGAQQPSALAALQPAKERRSSSSSSSSSSSSSSSSSSSSSSSSSGSSSSDSEGSSLPVQPEVALKRVPSPTPAPKEAVREGRPPEPTPAKRKRRSSSSSSSSSSSSSSSSSSSSSSSSSSSSSSSSSSSSSSSSSSPSPAKPGPQALPKPASPKKPPPGERRSRSPRKPIDSLRDSRSLSYSPVERRRPSPQPSPRDQQSSSSERGSRRGQRGDSRSPSHKRRRETPSPRPMRHRSSRSPMAEIGTGFPFDPHYVEVLGERMHYVDVGPRDGTPVLFLHGNPTSSYVWRNIIPHVAPTHRCIAPDLIGMGKSDKPDLGYFFDDHVRFMDAFIEALGLEEVVLVIHDWGSALGFHWAKRNPERVKGIAFMEFIRPIPTWDEWPEFARETFQAFRTTDVGRKLIIDQNVFIEGTLPMGVVRPLTEVEMDHYREPFLNPVDREPLWRFPNELPIAGEPANIVALVEEYMDWLHQSPVPKLLFWGTPGVLIPPAEAARLAKSLPNCKAVDIGPGLNLLQEDNPDLIGSEIARWLSTLEISG
B4: the binding entry in assay [6] was “binds”.
